PMC12392934, “TCP19 regulates nitrogen‐dependent sheath blight susceptibility by modulating nitrogen uptake and signalling in rice”
These are yes or no findings as the source states them, for the method shown. Sequences can lack the tags named with a protein.

Target: T1, PIL15-BD (rice (Oryza sativa)) (UniProt Q0JNI9)
T1 sequence: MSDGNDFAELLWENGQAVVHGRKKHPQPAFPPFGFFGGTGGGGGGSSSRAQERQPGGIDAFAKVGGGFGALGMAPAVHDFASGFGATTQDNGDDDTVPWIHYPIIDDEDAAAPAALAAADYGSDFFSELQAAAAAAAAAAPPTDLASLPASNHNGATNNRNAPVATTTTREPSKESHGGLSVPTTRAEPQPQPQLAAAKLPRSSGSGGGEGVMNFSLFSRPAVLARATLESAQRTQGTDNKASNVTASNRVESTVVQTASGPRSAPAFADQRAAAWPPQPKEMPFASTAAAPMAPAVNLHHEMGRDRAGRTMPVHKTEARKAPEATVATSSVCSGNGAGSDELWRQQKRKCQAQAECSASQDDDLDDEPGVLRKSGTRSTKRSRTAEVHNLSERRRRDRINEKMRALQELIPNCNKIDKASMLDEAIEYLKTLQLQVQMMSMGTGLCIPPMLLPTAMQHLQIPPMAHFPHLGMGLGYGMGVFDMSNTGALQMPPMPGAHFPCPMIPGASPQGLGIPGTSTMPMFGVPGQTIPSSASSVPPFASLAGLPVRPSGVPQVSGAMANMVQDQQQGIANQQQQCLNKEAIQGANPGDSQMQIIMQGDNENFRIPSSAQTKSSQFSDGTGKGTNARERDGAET
Experiment: two-hybrid; pairwise, pGAD424 (AD) and pGBT9 (BD) fusions in yeast strain PJ694A; growth on SD/-Leu-His-Trp

B1: DEP1-AD (protein, UniProt Q67UU9 1-426)
chain: MGEEAVVMEAPRPKSPPRYPDLCGRRRMQLEVQILSREITFLKDELHFLEGAQPVSRSGCIKEINEFVGTKHDPLIPTKRRRHRSCRLFRWIGSKLCICISCLCYCCKCSPKCKRPRCLNCSCSSCCDEPCCKPNCSACCAGSCCSPDCCSCCKPNCSCCKTPSCCKPNCSCSCPSCSSCCDTSCCKPSCTCFNIFSCFKSLYSCFKIPSCFKSQCNCSSPNCCTCTLPSCSCKGCACPSCGCNGCGCPSCGCNGCGCPSCGCNGCGLPSCGCNGCGSCSCAQCKPDCGSCSTNCCSCKPSCNGCCGEQCCRCADCFSCSCPRCSSCFNIFKCSCAGCCSSLCKCPCTTQCFSCQSSCCKRQPSCCKCQSSCCEGQPSCCEGHCCSLPKPSCPECSCGCVWSCKNCTEGCRCPRCRNPCCLSGCLC
binding: no binding
